Measurements: US9744164B2, “Neuroprotective polyphenol analogs” (Salk Institute for Biological Studies, priority 2011, dated 2017)
Some entries share one result that the patent states for a list of compounds. Some compounds share one range, which may span the group rather than tell each member.

System: HT22 cells
Assay: in vitro ischemia assay (HT22 cell IAA assay)
Format: cell-based, mouse
Protocol: For these studies, cultured HT22 mouse hippocampal cells were used as an in vitro stroke assay. HT22 cells were treated with iodoacetic acid (IAA), an irreversible inhibitor of glyceraldehyde 3-phosphate dehydrogenase (G3PDH) for 2 hr alone or in the presence of varying concentrations of Fisetin. G3PDH is an enzyme of the glycolysis pathway, which catalyzes the synthesis of 1,3-bisphosphoglycerate, a “high energy” intermediate used for the synthesis of ATP. Cell survival was measured using a standard colorimetric MTT (3-(4,5-dimethylthiazol-2-yl)-2,5-diphenyltetrazolium bromide) assay for cell survival MTT is a pale yellow substrate that is cleaved by living cells to yield a dark blue formazan product.
Cytotoxicity assay. Cell viability was determined by a modified version of 3-(4,5-dimethylthiazol-2-yl)-2,5-diphenyl tetrazolium bromide (MTT) assay based on the standard procedure (Maher, et al., Brain Research. (2007), supra). Cells were seeded onto 96-well microtiter plates at a density of 5×10^3 cells per well. For the in vitro ischemia assay, the next day, the medium was replaced with DMEM supplemented with 7.5% DFCS and the cells were treated with 20 μM iodoacetic acid (IAA) alone or in the presence of the different derivatives. After 2 hr the medium in each well was aspirated and replaced with fresh medium without IAA but containing the derivatives. 20 hr later, the medium in each well was aspirated and replaced with fresh medium containing 2.5 μg/ml MTT. After 4 hr of incubation at 37° C., the cells were solubilized with 100 μl of a solution containing 50% dimethylformamide and 20% SDS (pH 4.7). The absorbance at 570 nm was measured on the following day with a microplate reader (Molecular Devices). Results were confirmed by visual inspection of the wells. Controls included compound alone to test for toxicity and compound with no cells to test for interference with the assay chemistry. […]
The roles of the four different hydroxyl groups in the activity of Fisetin were studied. […] Cell viability was determined after 24 hr by the MTT assay. […]

Compound | enhancement of neuroprotective activity relative to CMS-027
COc1cc(-c2cc(=O)c3cc(C)c(C)cc3o2)ccc1O [CMS-064, 2-(4-hydroxy-3-methoxyphenyl)-6,7-dimethyl-4H-chromen-4-one] | 10-20 fold
COc1cc(-c2oc3cc(C)c(C)cc3c(=O)c2O)ccc1O [CMS-069, 3-hydroxy-2-(4-hydroxy-3-methoxyphenyl)-6,7-dimethyl-4H-chromen-4-one] | 10-20 fold
COc1ccc(-c2oc3cc(C)c(C)cc3c(=O)c2O)cc1O [CMS-092, 3-hydroxy-2-(3-hydroxy-4-methoxyphenyl)-6,7-dimethyl-4H-chromen-4-one] | 10-20 fold
